{
  "source": "paper PMC6595003",
  "about": "“Insights into real-time chemical processes in a calcium sensor protein-directed dynamic library” (Nature Communications, 2019)",
  "test": "Parallel artificial membrane permeability assay (PAMPA-BBB)",
  "type": "in vitro ADME",
  "conditions": "source data",
  "description": "The PAMPA methodology is a high-throughput technique to predict passive permeability through biological membranes that employs a brain lipid porcine as membrane. […]\nFrom this equation and following the pattern established in the literature for BBB permeation prediction2 we could classify compounds as CNS + when they present a permeability > 4.50 x 10-6 cm s-1. Source data are provided as a Source Data file. […]\nParallel artificial membrane permeability assays. Prediction of the brain penetration was evaluated using a parallel artificial membrane permeability assay (PAMPA).4 Ten commercial drugs, phosphate buffer saline solution at pH 7.4 (PBS). DMSO and dodecane were purchased from Sigma, Across organics, Aldrich and Fluka. The porcine […]\nplate was a 96-well filtrate plate (Multiscreen® IP Sterile Plate PDVF membrane, pore […]\nMAIPS4510) and the acceptor plate was an indented 96-well plate (Multiscreen®, catalog no. MAMCS9610) both from Millipore. Filter PDVF […]\nmembrane units (diameter 30 mm, pore size 0.45 µm) from Symta were used to filter the samples. A 96-well plate UV reader (Thermoscientific, Multiskan spectrum) was used for the UV measurements.",
  "data": [
    {"smiles": "CC(C)NCC(O)COc1ccc(CC(N)=O)cc1", "note": "(stereo not drawn) [Atenolol]", "values": [
      {"measurement": "Pe (10-6 cm s-1) Experimental 1", "value": "1.1 10-6 cm s-1"},
      {"measurement": "Pe (10-6 cm s-1) Experimental 2", "value": "0.56 10-6 cm s-1"},
      {"measurement": "Pe (10-6 cm s-1) Experimental 3", "value": "1.60 10-6 cm s-1"}
    ]}
  ]
}
